In the supplement of paper PMC4604168 (melanoma cell lines):
The other results are listed elsewhere or left out. Single values are uncertain, as repeats are few or missing.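 Imaging used 1,536-well plates; nuclei positive for cleaved PARP by antibody were divided by total DNA-stained nuclei to yield the apoptosis fraction. Doses for screening kept most cells viable, and cell lines differ markedly in resting and induced cleaved-PARP levels.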

Tested on: WM451Lu
Assay: cleaved PARP positive nuclei fraction relative to DMSO control; melanoma cells; higher = more apoptosis
Conditions: library dose: low library concentration; 72 h

SMILES	cleaved PARP positive nuclei fraction [%]
Cn1cnc2c(F)c(Nc3ccc(Br)cc3Cl)c(C(=O)NOCCO)cc21 [selumetinib] + Cn1nnc2c(C(N)=O)ncn2c1=O [temozolomide] (first compound 0.015 µM, partner dose 2 µM)	84.2
C[C@]1(O)C[C@@H](c2nc(-c3ccc4ccc(-c5ccccc5)nc4c3)c3c(N)nccn32)C1 + CS(=O)(=O)c1ccc(C(=O)Nc2ccc(Cl)c(-c3ccccn3)c2)c(Cl)c1 [vismodegib] (first compound 0.4 µM, partner dose 1 µM)	150
C[C@]1(O)C[C@@H](c2nc(-c3ccc4ccc(-c5ccccc5)nc4c3)c3c(N)nccn32)C1 + Cc1cc(Nc2cc(N3CCN(C)CC3)nc(/C=C/c3ccccc3)n2)n[nH]1 [ENMD2076] (first compound 0.4 µM, partner dose 0.04 µM)	142
Cn1cnc2c(F)c(Nc3ccc(Br)cc3Cl)c(C(=O)NOCCO)cc21 [selumetinib] + O=C(O)[C@@H]1[O][Sb](=[O])([O][Sb]2(=[O])[O][C@H]([C@H](O)CO)[C@H](O)[C@H](C(=O)O)[O]2)[O][C@H]([C@H](O)CO)[C@@H]1O [stibogluconate] (first compound 0.015 µM, partner dose 2 µM)	122
Cn1cnc2c(F)c(Nc3ccc(Br)cc3Cl)c(C(=O)NOCCO)cc21 [selumetinib] + CCN(CC)CCNC(=O)c1c(C)[nH]c(/C=C2\C(=O)Nc3ccc(F)cc32)c1C [sunitinib] (first compound 0.015 µM, partner dose 0.4 µM)	38.8
Cn1sc(=O)n(Cc2ccccc2)c1=O + CN(c1ncccc1CNc1nc(Nc2ccc3c(c2)CC(=O)N3)ncc1C(F)(F)F)S(C)(=O)=O [PF562271] (first compound 0.4 µM, partner dose 0.08 µM)	124
CC1(C)CCC(c2ccc(Cl)cc2)=C(CN2CCN(c3ccc(C(=O)NS(=O)(=O)c4ccc(N[C@H](CCN5CCOCC5)CSc5ccccc5)c(S(=O)(=O)C(F)(F)F)c4)cc3)CC2)C1 + OCc1c[nH]c2ccccc12 [Indole-3-carbinol] (first compound 0.4 µM, partner dose 0.8 µM)	30.3
CC(=O)O[C@@]12CO[C@@H]1C[C@H](O)[C@@]1(C)C(=O)[C@H](O)C3=C(C)[C@@H](OC(=O)[C@H](O)[C@@H](NC(=O)OC(C)(C)C)c4ccccc4)C[C@@](O)([C@@H](OC(=O)c4ccccc4)[C@H]21)C3(C)C [Docetaxel] + NC1(c2ccc(-c3nc4ccn5c(=O)[nH]nc5c4cc3-c3ccccc3)cc2)CCC1 [MK2206] (first compound 0.0001 µM, partner dose 0.4 µM)	141
C[C@]1(O)C[C@@H](c2nc(-c3ccc4ccc(-c5ccccc5)nc4c3)c3c(N)nccn32)C1 + Nc1cccc2c1CN(C1CCC(=O)NC1=O)C2=O [lenalidomide] (first compound 0.4 µM, partner dose 1 µM)	85
C[C@@H](N)c1ccc(C(=O)Nc2ccnc3[nH]ccc23)cc1 + C=CCNC1=C2C[C@@H](C)C[C@H](OC)[C@H](O)[C@@H](C)/C=C(\C)[C@H](OC(N)=O)[C@@H](OC)/C=C\C=C(/C)C(=O)NC(=CC1=O)C2=O [Tanespimycin] (first compound 0.4 µM, partner dose 0.002 µM)	99.3

A section from further up:
SMILES	cleaved PARP positive nuclei fraction [%]
C[C@]1(O)C[C@@H](c2nc(-c3ccc4ccc(-c5ccccc5)nc4c3)c3c(N)nccn32)C1 + Nc1cccc2c1CN(C1CCC(=O)NC1=O)C2=O [lenalidomide] (first compound 0.4 µM, partner dose 1 µM)	85
C[C@@H](N)c1ccc(C(=O)Nc2ccnc3[nH]ccc23)cc1 + C=CCNC1=C2C[C@@H](C)C[C@H](OC)[C@H](O)[C@@H](C)/C=C(\C)[C@H](OC(N)=O)[C@@H](OC)/C=C\C=C(/C)C(=O)NC(=CC1=O)C2=O [Tanespimycin] (first compound 0.4 µM, partner dose 0.002 µM)	99.3
